The experiment concerns mouse twisting model induced by acetic acid. Conditions: in vivo. How it is done: 1. In Vivo Analgesic Activity in Mouse Twisting Model Induced by Acetic Acid.
In mouse twisting model: The glacial acetic acid as the chemical irritant is injected into the mouse stomach, which causes a deep and large area and lasting pain stimulus for animal which has a “twist body” reaction, such as abdominal cove, torso and legs spread out, hip high up.
Equal numbers of male and female mice, whose weight were about […], were divided into groups by random. Each group consisted of eight mice. 0.2 ml/20 g of 0.6% (v/v) of acetic acid, which caused visceral pain, was intraperitoneally injected after the test sample was injected into the stomach of mouse for 20 minutes. The writhing times of the mouse were recorded for 10 min after the acetic acid was injected for 5 min. […] The inhibition of writhing response inhibition for each test group was calculated by the following formula: […]

`CN1CC[C@]23c4c5ccc(O)c4O[C@H]2[C@@H](O)C=C[C@H]3[C@H]1C5` [morphine, reference compound] returned an inhibition of writhing of 35.75%. For the same molecule, the “writhing times (Mean±SEM)” value (ip) worked out at 29.12±1.76.

(Values after patent US9127075B2, “Analgesic active peptide VGG, preparation and use thereof” (priority 2010, dated 2015).)
